Results as given in patent US20260008847A1 (ELPISCIENCE SUZHOU BIOPHARMA, published 2026).
No constants are given. Whether binding was seen depends on the method and setting. Some binding calls cover weakened binding; strength is not graded here. Each block holds one binder with its values, some of them ahead of it.

Amino acid sequences for entries named in this document (tags omitted). Residues count along the entry.
UniProt Q8N423, residues 22-458: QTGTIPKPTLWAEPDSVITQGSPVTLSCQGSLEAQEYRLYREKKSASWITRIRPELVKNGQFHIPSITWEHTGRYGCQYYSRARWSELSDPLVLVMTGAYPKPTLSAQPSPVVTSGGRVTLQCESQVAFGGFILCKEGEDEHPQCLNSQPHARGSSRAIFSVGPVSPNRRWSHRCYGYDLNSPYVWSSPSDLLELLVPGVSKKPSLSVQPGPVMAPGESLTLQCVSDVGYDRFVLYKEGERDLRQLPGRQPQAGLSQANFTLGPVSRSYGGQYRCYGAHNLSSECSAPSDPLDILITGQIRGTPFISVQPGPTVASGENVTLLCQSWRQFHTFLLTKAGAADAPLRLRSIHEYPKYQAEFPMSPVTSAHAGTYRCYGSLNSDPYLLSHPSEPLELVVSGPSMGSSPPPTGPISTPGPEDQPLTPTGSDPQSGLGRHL

Experiments:
[1] = target: 6×His-tagged human LILRB2 ECD recombinant protein (human) (UniProt Q8N423); assay: ELISA, 0.5 µg/mL antibody on coated LILRB2 ECD
[2] = target: 6×His-tagged human LILRB2 ECD recombinant protein (human) (UniProt Q8N423); assay: Bio-Layer Interferometry
[3] = target: 6×His-tagged human LILRB2 ECD recombinant protein (human) (UniProt Q8N423); assay: Bio-Layer Interferometry (Octet), 1:1 model
[4] = target: 6×His-tagged human LILRB2 ECD recombinant protein (human) (UniProt Q8N423); assay: Bio-Layer Interferometry (Octet)
[5] = target: 6×His-tagged human LILRB2 ECD recombinant protein (human) (UniProt Q8N423); assay: Surface Plasmon Resonance (Biacore)

B3: 043c (antibody, V domains shown)
VH: QVQLQQSGAELAKPGASVKLSCKASGYTFTSYWMYWVKQRPGQGLEWIGHINPSSGYTKYNQKFKDKATLTADKSSSTAYMQLSSLTYEDSAVYYCARDPNWDNYWGQGTTLTVSS
VL: DIVMTQSHKFMSTSVGDRVSITCKASQDVSIAVAWYQQKPGQSPKLLIYSASYRYTGVPDRFTGSGSGTDFTFTISSVQAEDLAVYYCQQHYSTPYTFGGGTKLEIK
notes: Human IgG4 chimeric antibody with S228P mutation at the Fc region; also called chimeric antibody 043c; parental antibody 043c
- binding [1]: binds
- binding [3]: binds

B4: hu043.04 (antibody, V domains shown)
VH: QVQLVQSGAEVKKPGASVKVSCKASGYTFTSYWMYWVRQAPGQGLEWIGHINPSSGYTKYNQKFKDRATLTADTSTSTAYMELSSLRSEDTAVYYCARDPNWDNYWGQGTTVTVSS
VL: DIQMTQSPSSLSASVGDRVTITCKASQDVSIAVAWYQQKPGKAPKLLIYSASYRYTGVPSRFSGSGSGTDFTFTISSLQPEDIATYYCQQHYSTPYTFGGGTKLEIK
notes: Humanized human IgG4 antibody with S228P in the constant region; also called hu043VH6 / hu043VL2
- binding [4]: binds

B5: hu043.06 (antibody, V domains shown)
VH: QVQLQQSGAEVKKPGASVKLSCKASGYTFTSYWMYWVRQRPGQGLEWIGHINPSSGYTKYNQKFKDRATLTADTSTSTAYMELSSLRSEDTAVYYCARDPNWDNYWGQGTTVTVSS
VL: DIQMTQSPSSLSASVGDRVTITCKASQDVSIAVAWYQQKPGKAPKLLIYSASYRYTGVPSRFSGSGSGTDFTFTISSLQPEDIATYYCQQHYSTPYTFGGGTKLEIK
notes: Humanized human IgG4 antibody with S228P in the constant region; also called hu043VH8 / hu043VL2
- binding [4]: binds

B7: hu043.07 (antibody, V domains shown)
VH: QVQLVQSGAEVKKPGASVKVSCKASGYTFTSYWMYWVRQAPGQGLEWIGHINPSSGYTKYNQKFKDKATLTADKSTSTAYMELSSLRSEDTAVYYCARDPNWDNYWGQGTTVTVSS
VL: DIQMTQSPSSMSASVGDRVTITCKASQDVSIAVAWYQQKPGKAPKLLIYSASYRYTGVPSRFSGSGSGTDFTFTISSVQPEDIATYYCQQHYSTPYTFGGGTKLEIK
notes: Humanized human IgG4 antibody with S228P in the constant region; also called hu043VH9 / hu043VL1
- binding [5]: binds

B8: hu043.03 (antibody, V domains shown)
VH: QVQLQQSGAEVKKPGASVKLSCKASGYTFTSYWMYWVRQRPGQGLEWIGHINPSSGYTKYNQKFKDRATLTADTSTSTAYMELSSLRSEDTAVYYCARDPNWDNYWGQGTTVTVSS
VL: DIVMTQSPSSLSASVGDRVSITCKASQDVSIAVAWYQQKPGKAPKLLIYSASYRYTGVPDRFSGSGSGTDFTFTISSLQPEDIATYYCQQHYSTPYTFGGGTKLEIK
notes: Humanized human IgG4 antibody with S228P in the constant region; also called hu043VH8 / hu043VL4
- binding [4]: binds

B11: hu043.05 (antibody, V domains shown)
VH: QVQLVQSGAEVKKPGASVKVSCKASGYTFTSYWMYWVRQAPGQGLEWIGHINPSSGYTKYNQKFKDRVTMTADTSTSTVYMELSSLRSEDTAVYYCARDPNWDNYWGQGTTVTVSS
VL: DIQMTQSPSSLSASVGDRVTITCKASQDVSIAVAWYQQKPGKAPKLLIYSASYRYTGVPSRFSGSGSGTDFTFTISSLQPEDIATYYCQQHYSTPYTFGGGTKLEIK
notes: Humanized human IgG4 antibody with S228P in the constant region; also called hu043VH7 / hu043VL2
- binding [4]: binds

Results, then the binder that gave them:

- binding [1]: binds
B1: J-19 (antibody, V domains shown)
VH: QVTLKESGPGILQPSHTLSLTCSFSGFSLNTYAMGVSWIRQPSGKGLEWLASIWWNGNKYNNPSLKSRLTVSKDTSNNQAFLKVTSVDTADTATYYCAHSRIIRFTDYVMDAWGQGASVTVSS
VL: DIQMTQSPASLSTFLGEPVTIECRASEDIYNDLAWYQQKPGKSPQLLIYNANSLHTGVPSRFSGSGSGTQYSLKINSLQSEDVASYFCQQYYDYPLTFGSGTKLEIK
notes: Human IgG4 monoclonal antibody with S228P in the constant region, made according to WO 2019/126514 A2; also called benchmark antibody J-19

- binding [2]: binds
B2: monoclonal antibody secreted by hybridoma clone 8G2F10 (antibody, V domains shown)
VH: QVQLQQSGAELAKPGASVKLSCKASGYTFTSYWMYWVKQRPGQGLEWIGHINPSSGYTKYNQKFKDKATLTADKSSSTAYMQLSSLTYEDSAVYYCARDPNWDNYWGQGTTLTVSS
VL: DIVMTQSHKFMSTSVGDRVSITCKASQDVSIAVAWYQQKPGQSPKLLIYSASYRYTGVPDRFTGSGSGTDFTFTISSVQAEDLAVYYCQQHYSTPYTFGGGTKLEIK
notes: Mouse hybridoma antibody

- binding [4]: binds
B6: hu043.01 (antibody, V domains shown)
VH: QVQLVQSGAEVKKPGASVKVSCKASGYTFTSYWMYWVRQAPGQGLEWIGHINPSSGYTKYNQKFKDRATLTADTSTSTAYMELSSLRSEDTAVYYCARDPNWDNYWGQGTTVTVSS
VL: DIVMTQSPSSLSASVGDRVSITCKASQDVSIAVAWYQQKPGKAPKLLIYSASYRYTGVPDRFSGSGSGTDFTFTISSLQPEDIATYYCQQHYSTPYTFGGGTKLEIK
notes: Humanized human IgG4 antibody with S228P in the constant region; also called hu043VH6 / hu043VL4

- binding [4]: binds
B9: hu043.02 (antibody, V domains shown)
VH: QVQLVQSGAEVKKPGASVKVSCKASGYTFTSYWMYWVRQAPGQGLEWIGHINPSSGYTKYNQKFKDRVTMTADTSTSTVYMELSSLRSEDTAVYYCARDPNWDNYWGQGTTVTVSS
VL: DIVMTQSPSSLSASVGDRVSITCKASQDVSIAVAWYQQKPGKAPKLLIYSASYRYTGVPDRFSGSGSGTDFTFTISSLQPEDIATYYCQQHYSTPYTFGGGTKLEIK
notes: Humanized human IgG4 antibody with S228P in the constant region; also called hu043VH7 / hu043VL4

- binding [5]: binds
B10: hu043.08 (antibody, V domains shown)
VH: QVQLVQSGAEVKKPGASVKVSCKASGYTFTSYWMYWVRQAPGQGLEWIGHINPSSGYTKYNQKFKDKATLTADKSTSTAYMELSSLRSEDTAVYYCARDPNWDNYWGQGTTLTVSS
VL: DIQMTQSPSSMSASVGDRVTITCKASQDVSIAVAWYQQKPGKAPKLLIYSASYRYTGVPSRFSGSGSGTDFTFTISSVQPEDIATYYCQQHYSTPYTFGGGTKLEIK
notes: Humanized human IgG4 antibody with S228P in the constant region; also called hu043VH10 / hu043VL1

- binding [1]: binds
B12: 1E1 (antibody, V domains shown)
VH: QVQLQQWGAGLLKPSETLSLTCAVYGGSFSGYYWSWIRQPPGKGLEWIGEINHSGSTNYNPSLKSRVTISVDTSKNQFSLKLSSVTAADTAVYYCARLPTRWVTTRYFDLWGRGTLVTVSS
VL: QSVLTQPPSVSGAPGQRVTISCTGSSSNIGAGYDVHWYQQLPGTAPKLLIYGNSNRPSGVPDRFSVSKSGASASLAITGLQAEDEADYYCQSFDNSLSAYVFGGGTQLTVL
notes: Human IgG4 monoclonal antibody with S228P in the constant region, made according to US 2018/0298096 A1; also called benchmark antibody 1E1
